The list shows only some results of the screen, not a fair sample: it gathers tests that were run many times, whatever their T/C, doses with no T/C, and many T/C values between a quarter and a half above the control. Other doses and runs of a compound stand elsewhere. T/C gives the treated animals as a percentage of the vehicle group. Schedules are NCI's codes, read here as Q, the interval in days (D) or hours (H), X, the number of doses. Some entries were tested several times; the values are given in rising order. Some T/C values carry the count of animals alive at the toxicity check (mostly the fifth day); where none is given, no animal had died by that day. Some entries give survivors of the animals treated and no T/C: the source files T/C as zero there, which appears to mark a toxic dose or a test without result, not a measured value. Survivors were counted at the toxicity check, usually on the fifth day, unless a day is given; later deaths do not show.

For 15 molecules, T/C and survivor count results are on record in PubChem BioAssay AID212 (DTP/NCI, 2004).

The subject of the experiment is BDF1 mice, colon carcinoma 38 sc, T/C %. The experiment in a line: NCI In Vivo Anticancer Drug Screen. Data for tumor model Colon Carcinoma 38 (subcutaneous) in B6D2F1 (BDF1) mice. Particulars: T/C endpoint: median tumor weight (est.), higher T/C = larger tumour; for T/C: evaluated on day 20. Summed up: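 T/C readout: treated group (T) measurement over vehicle control group (C) measurement. Endpoint is survival or tumor size in mice bearing a transplanted tumor.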

[1] abbreviates: dose: 25.0 mg/kg/injection, schedule: Q07DX002 (ip), vehicle: saline.
[2] abbreviates: dose: 50.0 mg/kg/injection, schedule: Q07DX002 (ip), vehicle: Klucel (hydroxypropylcellulose) (HPC).
Where [3] appears, read: dose: 400.0 mg/kg/injection, schedule: Q07DX002 (ip), vehicle: Klucel (hydroxypropylcellulose) (HPC).
Where [4] appears, read: dose: 100.0 mg/kg/injection, schedule: Q07DX002 (ip), vehicle: Klucel (hydroxypropylcellulose) (HPC).
[5] abbreviates: dose: 400.0 mg/kg/injection, schedule: Q07DX002 (ip), vehicle: saline with Tween-80.
The mark [6] stands for this setting: dose: 0.5 mg/kg/injection, schedule: Q07DX002 (ip), vehicle: saline + alcohol.
Where [7] appears, read: dose: 1.0 mg/kg/injection, schedule: Q07DX002 (ip), vehicle: saline + alcohol.
Setting [8] is: dose: 2.0 mg/kg/injection, schedule: Q07DX002 (ip), vehicle: saline + alcohol.
Where [9] appears, read: dose: 4.0 mg/kg/injection, schedule: Q07DX002 (ip), vehicle: saline + alcohol.
[10] abbreviates: dose: 8.0 mg/kg/injection, schedule: Q07DX002 (ip), vehicle: saline + alcohol.
The mark [11] stands for this setting: dose: 800.0 mg/kg/injection, schedule: Q07DX002 (ip), vehicle: saline with Tween-80.

On to `CC(=O)Nc1ccc(S(=O)(=O)CO)cc1`, for which the T/C (dose: 50.0 mg/kg/injection, schedule: Q07DX002 (ip), vehicle: saline with Tween-80) was 133 % of control.

`COC(=O)[C@@H]1c2cc3c(c(O)c2[C@@H](OC)C[C@@]1(C)O)C(=O)c1c(O)cc2c(c1C3=O)OC1O[C@@]2(C)[C@H](O)[C@@H](N(C)C)[C@@H]1O`: the T/C under setting [1] was 147 % of control and the T/C (dose: 25.0 mg/kg/injection, schedule: Q07DX003 (ip), vehicle: suspension in saline) was 127 % of control. Also, the survivor count by setting is: (dose: 200.0 mg/kg/injection, schedule: Q07DX002 (ip), vehicle: saline) 0 of 10 on day 20; (dose: 400.0 mg/kg/injection, schedule: Q07DX002 (ip), vehicle: saline) 0 of 10 on day 20.

Regarding `COc1ccc(-c2cc(=O)c3cccc(CC(=O)O)c3o2)cc1OC`, the T/C under setting [2] is 147 % of control. Besides, under setting [3], the survivor count is recorded as 2 of 10 on day 20.

With `CCCCCC[Se][Se]CCCCCC`, the T/C was 129 % of control (dose: 6.25 mg/kg/injection, schedule: Q07DX002 (ip), vehicle: Klucel (hydroxypropylcellulose) (HPC)); 129 % of control (dose: 12.5 mg/kg/injection, schedule: Q07DX002 (ip), vehicle: Klucel (hydroxypropylcellulose) (HPC)); 144 % of control [9 of 10 alive on day 20] under setting [2]. Also, the survivor count under setting [4] is 0 of 10 on day 20.

As for `CC1C=NNC1=O` (configuration not stated), the T/C under setting [2] is 148 % of control and the T/C under setting [3] is 141 % of control.

`COC1=C(OC)C(=O)C(Sc2ccc3ccccc3c2)=CC1=O`: the survivor count reads like this: (dose: 200.0 mg/kg/injection, schedule: Q07DX002 (ip), vehicle: saline with Tween-80) 3 of 10 on day 20; under setting [5], 0 of 10 on day 20.

As to `CC(=O)OCC1OC(OC2=C(CC=C(C)C)C(=O)c3ccccc3C2=O)C(OC(C)=O)C(OC(C)=O)C1OC(C)=O` (configuration not stated), the T/C (dose: 25.0 mg/kg/injection, schedule: Q07DX002 (ip), vehicle: Klucel (hydroxypropylcellulose) (HPC)) is 129 % of control [9 of 10 alive] and the T/C under setting [4] is 132 % of control.

`COC(=O)C12OCC34C(CC5C(C)=CC(=O)C(O)C5(C)C3C(O)C1O)OC(=O)C(OC(=O)CC(C)C)C24` (configuration not stated): the T/C is 85, 113, 139 % of control under setting [6]; 82 [9 of 10 alive on day 20], 99, 103 % of control under setting [7]; 33 [9 of 10 alive on day 20], 58, 88 % of control under setting [8]; 9 [9 of 10 alive on day 20], 23 [8 of 10 alive on day 20], 67 % of control [7 of 10 alive on day 20] under setting [9]; 11 % of control [9 of 10 alive on day 20] under setting [10]. Further, the survivor count is, setting by setting: under setting [6], 6 of 10 on day 20; under setting [7], 4 of 10 on day 20; under setting [8], 2 of 10 on day 20; under setting [9], 1 of 10 on day 20; under setting [10], 1 of 10 on day 20, 2 of 10 on day 20, 4 of 10 on day 20.

Consider `O=C1NC(=O)/C(=C/C=C/c2ccccc2)S1`, for which, where the note is “dose: 100.0 mg/kg/injection, schedule: Q07DX002 (ip), vehicle: saline with Tween-80”, the T/C is 144 % of control.

Take `O=C1CN(Cc2ccc3c(c2)OCO3)NO1`: the survivor count under setting [5] is 4 of 10 on day 20.

Consider `O=Cc1ccccc1`, for which the survivor count reads like this: under setting [5], 1 of 10 on day 20; (dose: 800.0 mg/kg/injection, schedule: Q07DX002 (ip), vehicle: Klucel (hydroxypropylcellulose) (HPC)) 6 of 10 on day 20; under setting [11], 0 of 10 on day 20.

For the molecule `C1OCN2CSCC12` (configuration not stated), the survivor count under setting [11] was 2 of 10 on day 20.

Consider `CCCCOCN(COCCCC)C12CC3CC(CC(C3)C1)C2`, for which the survivor count reads like this: under setting [5], 0 of 10 on day 20; under setting [11], 0 of 10 on day 20.

With `N=C1C=C[C@]2(O)C[C@H](Cl)CN12`, under setting [1], the survivor count was 0 of 10 on day 20.

With `O=C(NO)c1cc(O)c(O)c(O)c1`, the survivor count (dose: 1600.0 mg/kg/injection, schedule: Q07DX002 (ip), vehicle: water) is listed as 0 of 10 on day 20.
